Experimental data as given in article PMC7300003, “Alternative catalytic residues in the active site of Esco acetyltransferases” (Scientific Reports, 2020).
No constants are given. Whether binding was seen depends on the method and setting. Some results given as binding are weak or reduced against the parent protein; the word gives no strength. Where a sequence is shown, tags or fusion partners need not be part of it.

The chains behind the UniProt entries cited, without tags or fusion partners.
UniProt Q9UQE7: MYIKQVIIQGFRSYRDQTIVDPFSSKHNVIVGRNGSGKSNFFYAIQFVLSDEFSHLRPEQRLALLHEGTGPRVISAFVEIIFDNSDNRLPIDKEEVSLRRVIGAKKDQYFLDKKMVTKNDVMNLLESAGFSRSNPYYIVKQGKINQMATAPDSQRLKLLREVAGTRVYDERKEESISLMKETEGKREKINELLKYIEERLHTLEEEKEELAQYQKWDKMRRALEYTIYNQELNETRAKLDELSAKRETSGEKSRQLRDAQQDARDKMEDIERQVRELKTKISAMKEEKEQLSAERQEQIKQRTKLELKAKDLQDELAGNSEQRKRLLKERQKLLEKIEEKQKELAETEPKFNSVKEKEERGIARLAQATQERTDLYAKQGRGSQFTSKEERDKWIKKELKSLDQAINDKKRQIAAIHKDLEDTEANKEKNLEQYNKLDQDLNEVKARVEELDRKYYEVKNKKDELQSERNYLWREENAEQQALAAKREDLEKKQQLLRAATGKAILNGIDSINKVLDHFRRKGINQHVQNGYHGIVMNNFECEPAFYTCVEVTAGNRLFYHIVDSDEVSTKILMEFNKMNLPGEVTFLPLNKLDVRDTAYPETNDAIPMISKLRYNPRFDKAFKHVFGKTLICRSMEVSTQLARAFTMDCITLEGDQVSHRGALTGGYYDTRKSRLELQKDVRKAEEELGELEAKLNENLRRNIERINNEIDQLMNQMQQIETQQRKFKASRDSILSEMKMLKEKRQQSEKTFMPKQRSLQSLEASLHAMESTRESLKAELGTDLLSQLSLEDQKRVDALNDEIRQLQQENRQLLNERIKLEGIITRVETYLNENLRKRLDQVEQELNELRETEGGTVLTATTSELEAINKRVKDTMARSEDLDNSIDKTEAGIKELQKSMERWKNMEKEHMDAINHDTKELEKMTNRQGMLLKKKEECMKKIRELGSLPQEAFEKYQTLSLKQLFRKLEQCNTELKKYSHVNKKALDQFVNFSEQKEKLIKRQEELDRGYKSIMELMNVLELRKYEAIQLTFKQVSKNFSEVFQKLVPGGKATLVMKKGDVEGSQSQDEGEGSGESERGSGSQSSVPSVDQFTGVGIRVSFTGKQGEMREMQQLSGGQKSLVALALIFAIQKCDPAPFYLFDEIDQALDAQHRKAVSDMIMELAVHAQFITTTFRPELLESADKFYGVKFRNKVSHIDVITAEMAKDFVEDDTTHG

Molecular target: T1, His-SA1 (tetramer construct) (human) (UniProt Q8WVM7)
T1 sequence: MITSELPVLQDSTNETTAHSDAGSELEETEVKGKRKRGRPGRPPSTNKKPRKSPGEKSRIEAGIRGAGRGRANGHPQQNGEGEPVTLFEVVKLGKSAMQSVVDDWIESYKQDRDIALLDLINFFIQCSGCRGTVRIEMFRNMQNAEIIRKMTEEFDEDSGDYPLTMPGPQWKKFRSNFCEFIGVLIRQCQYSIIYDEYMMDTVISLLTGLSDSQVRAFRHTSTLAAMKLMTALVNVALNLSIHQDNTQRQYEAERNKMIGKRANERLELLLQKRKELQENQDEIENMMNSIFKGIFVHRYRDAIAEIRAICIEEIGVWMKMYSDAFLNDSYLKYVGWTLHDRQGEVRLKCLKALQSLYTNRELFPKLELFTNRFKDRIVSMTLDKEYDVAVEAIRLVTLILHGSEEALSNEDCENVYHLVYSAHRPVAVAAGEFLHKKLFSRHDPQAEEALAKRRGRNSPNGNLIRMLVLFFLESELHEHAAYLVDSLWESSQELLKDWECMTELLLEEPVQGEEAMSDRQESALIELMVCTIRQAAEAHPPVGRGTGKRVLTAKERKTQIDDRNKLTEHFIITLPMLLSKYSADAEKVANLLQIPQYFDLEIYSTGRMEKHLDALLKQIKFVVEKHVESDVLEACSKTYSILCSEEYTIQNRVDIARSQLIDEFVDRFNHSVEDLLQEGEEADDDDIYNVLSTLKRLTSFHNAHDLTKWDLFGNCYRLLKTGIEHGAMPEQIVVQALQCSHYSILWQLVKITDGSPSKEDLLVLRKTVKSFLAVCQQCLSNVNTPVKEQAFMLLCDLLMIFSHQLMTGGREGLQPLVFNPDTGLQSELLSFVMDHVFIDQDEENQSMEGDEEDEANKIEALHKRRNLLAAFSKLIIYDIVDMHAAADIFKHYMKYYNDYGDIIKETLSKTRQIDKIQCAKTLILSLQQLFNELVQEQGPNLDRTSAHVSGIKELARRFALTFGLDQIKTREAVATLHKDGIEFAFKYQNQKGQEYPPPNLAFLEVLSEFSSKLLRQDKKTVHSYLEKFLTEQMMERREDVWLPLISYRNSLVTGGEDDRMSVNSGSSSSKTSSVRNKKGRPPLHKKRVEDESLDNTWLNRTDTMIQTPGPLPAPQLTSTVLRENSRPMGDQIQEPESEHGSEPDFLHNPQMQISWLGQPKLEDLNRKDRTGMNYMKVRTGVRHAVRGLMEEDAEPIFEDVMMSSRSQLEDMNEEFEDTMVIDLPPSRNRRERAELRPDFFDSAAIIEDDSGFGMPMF
Experiment: co-purification of co-expressed proteins (Ni-NTA, then anti-FLAG M2 agarose); SMC1, SMC3-FLAG, SCC1 and HIS-SA1 co-expressed in Hi5; Ni-NTA beads with a 1 M NaCl wash, imidazole elution; eluate on anti-FLAG M2 agarose, eluted with FLAG peptide in 25 mM HEPES pH 7.5, 150 mM NaCl, 10% glycerol, 1 mM DTT

“SMC3-FLAG (tetramer construct) (from UniProt Q9UQE7 1-1217)” was tested, and the binding was “binds”.
